# Experimental data from the supplement of paper PMC8728848.
# The other results are listed elsewhere or left out.
# B1: FimA-N2 (Actinomyces oris) (protein)
# chain: MHHHHHHSSGVDLGTENLYFQSNAWIYDVNVYPKNEAIDVDKTIQAQKLNGYGVGSLIKFPVESTAPTLDAKSFYKYFQLKDTLDERLSEVTATDVSLEGTPLQPTDYKVETKQQTVTVTFTAEGLKKIKAAPGKKVSAVFQGKVTKAGNGAITNRAQVISDTLYAEQPPTPETPPTDPENPPTSDEVISRWGDLSIKKVDTHQQGQTKA
# How the values were obtained:
# Assay in all cases: glycan array binding signal (z-score within array); higher = stronger binding
# Details in all cases: glycan notation: IUPAC condensed, linker removed
# [1] = target: Fuc(a1-2)[GalNAc(a1-3)]Gal(b1-3)GlcNAc(b1-6)GalNAc
# How it was run: (§1)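 Arrays were curated from the Consortium for Functional Glycomics database, 3228 in total, and kept only where the protein sequence was available. Binding is expressed as a within-array Z-score. This score was averaged across arrays of the same protein sequence at different concentrations or buffers and across linkers, and negative values can be read as non-binding.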
# [2] = target: Fuc(a1-2)[GalNAc(a1-3)]Gal(b1-4)Glc
# How it was run: as §1
# [3] = target: Fuc(a1-2)[GalNAc(a1-3)]Gal(b1-4)GlcNAc
# How it was run: as §1
# [4] = target: Fuc(a1-2)[GalNAc(a1-3)]Gal(b1-4)GlcNAc(b1-2)Man
# How it was run: as §1
# [5] = target: Fuc(a1-2)[GalNAc(a1-3)]Gal(b1-4)GlcNAc(b1-2)Man(a1-3)[Fuc(a1-2)[GalNAc(a1-3)]Gal(b1-4)GlcNAc(b1-2)Man(a1-6)]Man(b1-4)GlcNAc(b1-4)GlcNAc
# How it was run: as §1
# [6] = target: Fuc(a1-2)[GalNAc(a1-3)]Gal(b1-4)GlcNAc(b1-2)Man(a1-3)[Fuc(a1-2)[GalNAc(a1-3)]Gal(b1-4)GlcNAc(b1-2)Man(a1-6)]Man(b1-4)GlcNAc(b1-4)[Fuc(a1-6)]GlcNAc
# How it was run: as §1
# [7] = target: Fuc(a1-2)[GalNAc(a1-3)]Gal(b1-4)GlcNAc(b1-3)Gal(b1-4)GlcNAc
# How it was run: as §1
# [8] = target: Fuc(a1-2)[GalNAc(a1-3)]Gal(b1-4)GlcNAc(b1-3)Gal(b1-4)GlcNAc(b1-3)Gal(b1-4)GlcNAc
# How it was run: as §1
# [9] = target: Fuc(a1-2)[GalNAc(a1-3)]Gal(b1-4)GlcNAc(b1-3)GalNAc
# How it was run: as §1
# [10] = target: Fuc(a1-2)[GalNAc(a1-3)]Gal(b1-4)GlcNAc(b1-3)[Fuc(a1-2)[GalNAc(a1-3)]Gal(b1-4)GlcNAc(b1-6)]GalNAc
# How it was run: as §1
# [11] = target: Fuc(a1-2)[GalNAc(a1-3)]Gal(b1-4)GlcNAc(b1-6)GalNAc
# How it was run: as §1
# [12] = target: Fuc(a1-2)[GalNAc(a1-3)]Gal(b1-4)[Fuc(a1-3)]GlcNAc
# How it was run: as §1
# [13] = target: Fuc(a1-2)[GalNAc(a1-3)]Gal(b1-4)[Fuc(a1-3)]GlcNAc(b1-3)GalNAc
# How it was run: as §1
# [14] = target: Fuc(a1-2)[GalNAc(a1-4)]Gal(b1-4)GlcNAc
# How it was run: as §1
# [15] = target: Fuc(a1-2)[GalNAc(b1-3)]Gal
# How it was run: as §1
# [16] = target: Fuc(a1-3)GlcNAc
# How it was run: as §1
# [17] = target: Fuc(a1-3)[Gal(b1-4)]Glc6S
# How it was run: as §1
# [18] = target: Fuc(a1-3)[Gal(b1-4)]GlcNAc
# How it was run: as §1
# [19] = target: Fuc(a1-3)[Gal(b1-4)]GlcNAc(b1-2)Man
# How it was run: as §1
# [20] = target: Fuc(a1-3)[Gal(b1-4)]GlcNAc(b1-2)Man(a1-3)[Fuc(a1-3)[Gal(b1-4)]GlcNAc(b1-2)Man(a1-6)]Man(b1-4)GlcNAc(b1-4)GlcNAc
# How it was run: as §1
# [21] = target: Fuc(a1-3)[Gal(b1-4)]GlcNAc(b1-2)Man(a1-3)[Fuc(a1-3)[Gal(b1-4)]GlcNAc(b1-2)Man(a1-6)]Man(b1-4)GlcNAc(b1-4)[Fuc(a1-6)]GlcNAc
# How it was run: as §1
# [22] = target: Fuc(a1-3)[Gal(b1-4)]GlcNAc(b1-3)Gal(b1-3)[Fuc(a1-4)]GlcNAc
# How it was run: as §1
# [23] = target: Fuc(a1-3)[Gal(b1-4)]GlcNAc(b1-3)Gal(b1-4)[Fuc(a1-3)]GlcNAc
# How it was run: as §1
# [24] = target: Fuc(a1-3)[Gal(b1-4)]GlcNAc(b1-3)Gal(b1-4)[Fuc(a1-3)]GlcNAc(b1-3)Gal(b1-4)[Fuc(a1-3)]GlcNAc
# How it was run: as §1
# [25] = target: Fuc(a1-3)[Gal(b1-4)]GlcNAc(b1-3)GalNAc
# How it was run: as §1
# [26] = target: Fuc(a1-3)[Gal(b1-4)]GlcNAc(b1-6)GalNAc
# How it was run: as §1
# [27] = target: Fuc(a1-3)[Gal(b1-4)]GlcNAc(b1-6)[Gal(b1-3)GlcNAc(b1-3)]Gal(b1-4)Glc
# How it was run: as §1
# [28] = target: Fuc(a1-3)[Gal(b1-4)]GlcNAc6S
# How it was run: as §1
# [29] = target: Fuc(a1-3)[Gal3S(b1-4)]Glc
# How it was run: as §1
# [30] = target: Fuc(a1-3)[Gal3S(b1-4)]GlcNAc
# How it was run: as §1
# [31] = target: Fuc(a1-3)[Gal3S(b1-4)]GlcNAc6S
# How it was run: as §1
# [32] = target: Fuc(a1-3)[GalNAc(b1-4)]GlcNAc
# How it was run: as §1
# [33] = target: Fuc(a1-3)[GalNAc(b1-4)]GlcNAc6S
# How it was run: as §1
# [34] = target: Fuc(a1-4)GlcNAc
# How it was run: as §1
# [35] = target: Fuc(b1-3)GlcNAc
# How it was run: as §1
# [36] = target: Gal(a1-2)Gal
# How it was run: as §1
# [37] = target: Gal(a1-3)Gal
# How it was run: as §1
binder,measurement,setting,value
B1,glycan array binding signal (z-score),[1],-0.945
same,glycan array binding signal (z-score),[2],0.541
same,glycan array binding signal (z-score),[3],-0.441
same,glycan array binding signal (z-score),[4],-0.337
same,glycan array binding signal (z-score),[5],-0.71
same,glycan array binding signal (z-score),[6],-0.545
same,glycan array binding signal (z-score),[7],0.271
same,glycan array binding signal (z-score),[8],-0.199
same,glycan array binding signal (z-score),[9],0.076
same,glycan array binding signal (z-score),[10],-1.05
same,glycan array binding signal (z-score),[11],-1.5
same,glycan array binding signal (z-score),[12],-0.592
same,glycan array binding signal (z-score),[13],-0.366
same,glycan array binding signal (z-score),[14],0.482
same,glycan array binding signal (z-score),[15],0.955
same,glycan array binding signal (z-score),[16],0.896
same,glycan array binding signal (z-score),[17],-0.84
same,glycan array binding signal (z-score),[18],-0.144
same,glycan array binding signal (z-score),[19],-0.454
same,glycan array binding signal (z-score),[20],-0.354
same,glycan array binding signal (z-score),[21],1.17
same,glycan array binding signal (z-score),[22],0.251
same,glycan array binding signal (z-score),[23],1.36
same,glycan array binding signal (z-score),[24],-0.031
same,glycan array binding signal (z-score),[25],-0.674
same,glycan array binding signal (z-score),[26],-0.225
same,glycan array binding signal (z-score),[27],0.036
same,glycan array binding signal (z-score),[28],0.295
same,glycan array binding signal (z-score),[29],-0.146
same,glycan array binding signal (z-score),[30],-0.441
same,glycan array binding signal (z-score),[31],-0.836
same,glycan array binding signal (z-score),[32],1.22
same,glycan array binding signal (z-score),[33],-0.264
same,glycan array binding signal (z-score),[34],-0.114
same,glycan array binding signal (z-score),[35],-0.092
same,glycan array binding signal (z-score),[36],-0.754
same,glycan array binding signal (z-score),[37],0.221

# Reformatted with tabs: part of the list above.
binder	measurement	setting	value
B1	glycan array binding signal (z-score)	[24]	-0.031
same	glycan array binding signal (z-score)	[25]	-0.674
same	glycan array binding signal (z-score)	[26]	-0.225
